Assay results reported in PubChem BioAssay AID493014 (National Center for Advancing Translational Sciences (NCATS), 2011).
This is one part of the list. The main result of the screen is listed elsewhere. These columns were measured beside it and carry no call. Compounds called inactive in the main read-out are mostly missing here. The note in brackets gives the kind of curve behind each potency; many fits are weak.

Assay: qHTS Assay to Find Inhibitors of Chronic Active B-Cell Receptor Signaling
Settings: ABC-DLBCL IkBa-CBG/CBR reporter, luminescence ratio (green luciferase fused to IkBa over red control in TMD8 lymphoma cells), 4 h
Procedure, shortened: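 TMD8 ABC-DLBCL cells carrying doxycycline-inducible green luciferase fused to IkappaBalpha plus unfused red luciferase were exposed to compounds (up to 46 uM) for 4 hrs at 37C. Activity came from the overlap-corrected green/red luminescence ratio.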

[1] = measured here: CBR red luminescence, cell number
[2] = measured here: IkBa-CBG green luminescence

Compound | AC50 [1] | AC50 [2]
Cn1c(=O)c2c(nc(CN3CCCCC3)n2Cc2c(F)cccc2Cl)n(C)c1=O | 25.1 µM [rising, single point] | –
Cc1cccc(Cn2c(SCCO)nc3c2c(=O)n(C)c(=O)n3C)c1 | 2.24 µM [falling, partial curve, poor fit] | –
CCOC(=O)C1=C(C)NC(=S)NC1c1ccc(-c2ccc(Cl)cc2)o1 (stereo not given) | 32.6 µM [falling, partial curve, poor fit] | –
CC1=NN(c2cccc(C(=O)O)c2)C(=O)/C1=C\C=C\c1ccco1 | 29.1 µM [falling, single point] | –
O=C(O)C1C2C=CC(C3CC23)C1C(=O)O (stereo not given) | 20.6 µM [rising, partial curve, poor fit] | –
O=C(NCc1ccccc1Cl)c1cccc(C(F)(F)F)c1 | 0.82 µM [rising, partial curve, poor fit] | –
COc1c(F)c(F)c(C(=O)Nc2ccc(NC(=O)c3ccco3)cc2)c(F)c1F | 1.64 µM [rising, partial curve, poor fit] | –
CCOC(=O)CCC(NC(=O)CCCCCCCCC(=O)NC(CCC(=O)OCC)C(=O)OCC)C(=O)OCC (stereo not given) | 18.4 µM [rising, partial curve] | –
CCN(CC)c1nc2ccccc2n(Cc2cccc(OC)c2)c1=O | 35.5 µM [rising, single point] | –
N/C(=N\OC(=O)CCC1CCCC1)c1ccccn1 | 2.59 µM [rising, partial curve] | –
Cc1cccc(C(=O)N/N=C/c2ccncc2)c1 | 7.94 µM [falling, partial curve] | –
CN(Cc1ccccc1)CC(O)COc1ccc(CNCc2cc3ccccc3s2)cc1 (stereo not given) | 35.5 µM [falling, single point] | –
C=C(C)CN(CC)c1nc(N)c2c(N)nc3c(c2c1C#N)CC(=O)N3C12CC3CC(CC(C3)C1)C2 | 6.51 µM [falling, single point] | –
Cc1ccc(NC(=O)COC(=O)c2ccc(-n3cccn3)cc2)cc1C | 0.13 µM [falling, full curve, poor fit] | –
COc1ccc(/C=C2\SC(=S)N(CCCC(=O)N3CCN(C)CC3)C2=O)cc1 | 3.98 µM [falling, full curve, poor fit] | –
O=C(Nc1ccccc1)c1ccc(-c2ccc(F)cc2)s1 | 2.24 µM [falling, full curve] | –
CCOc1ccccc1NC(=O)CC1Nc2ccccc2NC1=O (stereo not given) | 10.3 µM [falling, partial curve] | –
CCNC(=O)c1ccccc1-c1nc(-c2ccccc2OC)no1 | 0.891 µM [rising, full curve, poor fit] | –
CCOC(=O)/C(=N\Nc1ccc(Br)cc1)N1CC(C)OC(C)C1 (stereo not given) | 12.6 µM [rising, single point] | –
O=c1[nH]c(Nc2ccccc2)cc2ccccc12 | 1.12 µM [falling, full curve, poor fit] | –
O=C(CSC1=NCCS1)Nc1ccccc1F | 12.6 µM [falling, partial curve, poor fit] | –
Cc1ccc(NC(=O)C2CCCC2)cc1S(=O)(=O)N1CCOCC1 | 25.9 µM [rising, partial curve, poor fit] | –

Compound | AC50 [1] | AC50 [2]
COc1cc(CNCCO)cc(Br)c1OCc1ccccc1Cl | 31.6 µM [falling, single point] | –
COc1ccccc1N1CCN(C(=S)Nc2ccc3nc(N4CCOCC4)cc(C)c3c2)CC1 | 35.5 µM [falling, single point] | –
O=c1c2cc(N3CCOCC3)ccc2[nH]c(=S)n1CCCN1CCN(c2ccccc2F)CC1 | 29.1 µM [rising, single point] | –
CC(=O)NCC(=O)NC(C(=O)Nc1ccc2c(c1)OCCO2)c1ccccc1 (stereo not given) | 29.1 µM [rising, single point] | –
CSc1cc(C)n(-c2ccccc2)c(=S)c1C(C)=O | 29.1 µM [rising, single point] | –
Cc1cc(/C=N/Nc2ccc([N+](=O)[O-])cn2)c(C)n1-c1ccccc1 | 6.51 µM [rising, full curve, poor fit] | –
CC(C)(C)n1nc(-c2ccc(F)cc2)c2c(N)ncnc21 | 4.11 µM [falling, full curve, poor fit] | –
Cc1cc(OCC(=O)N(Cc2ccco2)C2CCS(=O)(=O)C2)ccc1Cl (stereo not given) | 8.91 µM [falling, partial curve] | –
Cc1cc(C)n(-c2nc3ccccc3nc2N2CCN(C(=O)c3ccccc3)CC2)n1 | 23.1 µM [rising, partial curve, poor fit] | –
Cc1cc(C(=O)N/N=C2/CC(C)CC(C)(C)C2)c(C)o1 (stereo not given) | 7.08 µM [falling, partial curve] | –
COc1cc(C(C)=O)ccc1Oc1cc(NN2CCCCC2)c([N+](=O)[O-])cc1[N+](=O)[O-] | 2.51 µM [rising, full curve, poor fit] | –
COc1cc2sc3cc(NCCCN4CCOCC4)ccc3c(=O)c2cc1OC | 6.51 µM [falling, single point] | –
CCCN(CCC)CCNC(=O)c1cc2c(-c3ccccc3F)nn(C)c2s1 | 6.31 µM [falling, full curve] | –
Nc1c(C(=O)c2ccc(Br)cc2)oc2ccccc12 | 1.64 µM [rising, partial curve] | –
CCC(C)NC(=O)CC(NS(=O)(=O)c1ccc(C)cc1)c1ccc(OC)cc1 (stereo not given) | 0.00411 µM [rising, full curve, poor fit] | –
CCOc1ccc(C=NNc2ccc(S(=O)(=O)Nc3ccccc3C(=O)O)cc2[N+](=O)[O-])cc1 | 29.1 µM [rising, single point] | –
C/C(=N\Nc1ncc(Cl)cc1Cl)c1ccc2c(c1)OCO2 | 0.2 µM [rising, full curve, poor fit] | –
COc1ccc(N/C=C2/Sc3ccccc3NC2=O)cc1 | 12.6 µM [falling, partial curve, poor fit] | –
COc1cccc(C(=O)Nc2nnc(-c3cccs3)o2)c1 | 12.6 µM [falling, partial curve] | 12.6 µM [falling, single point]
COc1cc2c(cc1NC(=O)COC(=O)CNC(=O)c1ccccc1)oc1ccccc12 | 0.447 µM [rising, full curve, poor fit] | –
COc1ccc2o/c(=N/NC(=S)Nc3ccccc3)c(C(N)=O)cc2c1 | 0.58 µM [falling, full curve, poor fit] | –
O=C(NCCN1CCOCC1)c1ccc(/C=C2\Sc3ccccc3N(Cc3ccc(F)cc3)C2=O)cc1 | 35.5 µM [falling, single point] | –

Compound | AC50 [1] | AC50 [2]
COc1cc(N=Nc2ccccc2C(=O)O)ccc1O | 10 µM [rising, partial curve, poor fit] | –
FC(F)(F)c1cc(CCN2C(=S)NC[C@@H]2Cc2ccccc2)cc(C(F)(F)F)c1 | – | 35.5 µM [rising, partial curve, poor fit]
Cc1ccc(S(=O)(=O)NNC(=O)Nc2ccc(Cl)c(Cl)c2)cc1 | 12.6 µM [rising, partial curve, poor fit] | –
CC1(NC(=O)COc2ccccc2-c2ccccc2)CCS(=O)(=O)C1 (stereo not given) | 0.731 µM [falling, partial curve, poor fit] | –
CCOc1ccc2nc(N3C(=O)C(O)=C(C(=O)c4ccco4)C3c3ccco3)sc2c1 (stereo not given) | 0.58 µM [rising, full curve, poor fit] | –
COc1ccccc1COCC(O)CNCCc1ccc(C(F)(F)F)cc1 (stereo not given) | 35.5 µM [falling, single point] | –
O=C(/C=C/c1ccco1)Oc1ccc(C(=S)N2CCOCC2)cc1 | 22.4 µM [rising, partial curve, poor fit] | –
CCc1ccc(NC(=O)c2cc(CC(C)C)on2)cc1 | 9.2 µM [rising, partial curve, poor fit] | –
CCOc1ccc(OCc2cccc(C(=O)N3CCOCC3)c2)cc1 | 29.1 µM [falling, single point] | –
CC(=O)Nc1ccc(OCCOc2ccc(/C=C3\C(=N)N4N=C(C)SC4=NC3=O)cc2)cc1 | 35.5 µM [rising, single point] | –
CC(C)COc1nc2c(c(=O)n(C)c(=O)n2C)n1C | 1.26 µM [falling, full curve, poor fit] | –
COc1ccc(CCNC(=O)C(=O)c2cn(CC(=O)N3CCOCC3)c3ccccc23)cc1 | 2.24 µM [falling, full curve] | –
Cc1ccccc1NC(=O)c1cccc(S(=O)(=O)N2CCCCC2)c1 | 5.62 µM [rising, single point] | –
CC1CC(OCC(O)CN2CCOCC2)CC(C)(C)C1 (stereo not given) | 14.6 µM [rising, partial curve, poor fit] | –
CCOC(=O)c1c(-c2ccc(C)s2)csc1N | 15.8 µM [falling, single point] | –
S=C(c1ccc2c(c1)OCO2)N1CCCCC1 | 4.11 µM [rising, full curve, poor fit] | –
COc1ccc(C(C(O)C(=O)c2c[nH]c3ccccc23)N2CCN(c3ccccc3)CC2)cc1 (stereo not given) | 18.4 µM [falling, single point] | –
CCn1c(=O)c([N+](=O)[O-])c(NCc2ccc3c(c2)OCO3)c2ccccc21 | 12.6 µM [falling, partial curve, poor fit] | –
COc1ccc(/[N+]([O-])=C/c2ccoc2)cc1 | 6.51 µM [rising, single point] | –
Cc1ccc(S(=O)(=O)Nc2cccc(-c3ccc(N4CCCCCC4)nn3)c2)cc1C | 25.1 µM [rising, single point] | –

Four records picked at random from the list so far:
Compound | AC50 [1] | AC50 [2]
O=C(/C=C/c1ccco1)Oc1ccc(C(=S)N2CCOCC2)cc1 | 22.4 µM [rising, partial curve, poor fit] | –
CC(C)COc1nc2c(c(=O)n(C)c(=O)n2C)n1C | 1.26 µM [falling, full curve, poor fit] | –
CC1(NC(=O)COc2ccccc2-c2ccccc2)CCS(=O)(=O)C1 (stereo not given) | 0.731 µM [falling, partial curve, poor fit] | –
CCOC(=O)c1c(-c2ccc(C)s2)csc1N | 15.8 µM [falling, single point] | –
